Measurements: PubChem BioAssay AID330 (DTP/NCI, 2004)
The list does not hold the whole screen: it is rich in T/C values a quarter to a half above the control, in often repeated tests (any T/C) and in doses without a T/C. Further doses and runs are listed elsewhere. T/C: endpoint of the treated group in % of that of the vehicle group. Some entries give survivors of the animals treated and no T/C: the source holds a T/C of zero for them, seemingly a mark for toxic or unscored doses. Some survivor counts are full or nearly so, which does not show that the dose was tolerated: survival well below the control is almost never listed, so the zero probably covers shortened survival too. Counts of survivors are from the toxicity check (mostly the fifth day) where no day follows; animals may have died later. Schedule codes are those of the source, read here as Q, the interval in days (D) or hours (H), X, the number of doses. Some entries were tested several times; the values are given in rising order. For survival time, the PubChem record calls one and a half times the control and up active, and a quarter to a half above the control has no call in these data; cut-offs in other NCI protocols can differ. Some T/C values are followed by the survivors on the day toxicity was checked, most often the fifth; where none is given, no animal had died by that day. Marks such as (2×) say how often a value occurs here.

Test system: P388 leukemia ip, CD2F1 mice, survival T/C
Assay: NCI In Vivo Anticancer Drug Screen. Data for tumor model P388 Leukemia (intraperitoneal) in CD2F1 (CDF1) mice
Conditions: T/C endpoint: median survival time, higher T/C = longer survival
[1] = dose: 25.0 mg/kg/injection, schedule: Q01DX005 (ip), vehicle: saline with Tween-80
[2] = dose: 50.0 mg/kg/injection, schedule: Q01DX005 (ip), vehicle: saline with Tween-80
[3] = dose: 100.0 mg/kg/injection, schedule: Q01DX005 (ip), vehicle: distilled water + Tween-80
[4] = dose: 100.0 mg/kg/injection, schedule: Q01DX005 (ip), vehicle: saline with Tween-80
[5] = dose: 200.0 mg/kg/injection, schedule: Q01DX005 (ip), vehicle: saline with Tween-80
[6] = dose: 2.0 mg/kg/injection, schedule: Q01DX005 (ip), vehicle: Klucel (hydroxypropylcellulose) (HPC)
[7] = dose: 4.0 mg/kg/injection, schedule: Q01DX005 (ip), vehicle: Klucel (hydroxypropylcellulose) (HPC)
[8] = dose: 120.0 mg/kg/injection, schedule: Q01DX005 (ip), vehicle: saline
[9] = dose: 240.0 mg/kg/injection, schedule: Q01DX005 (ip), vehicle: saline
[10] = dose: 60.0 mg/kg/injection, schedule: Q01DX005 (ip), vehicle: saline with Tween-80
[11] = dose: 120.0 mg/kg/injection, schedule: Q01DX005 (ip), vehicle: saline with Tween-80
[12] = dose: 240.0 mg/kg/injection, schedule: Q01DX005 (ip), vehicle: saline with Tween-80

**Q.** What does the source list for COc1ccc2c3c(ccc2c1)C(=O)/C(=C\O)CC3?
**A.** survivor count (dose: 100.0 mg/kg/injection, schedule: Q01DX005 (ip), vehicle: Klucel (hydroxypropylcellulose) (HPC)): 4 of 5; survivor count (dose: 200.0 mg/kg/injection, schedule: Q01DX005 (ip), vehicle: Klucel (hydroxypropylcellulose) (HPC)): 0 of 5

**Q.** For COc1ccc(N2CSC(=S)N(c3ccc(OC)cc3)C2)cc1, which survivor count (dose: 100.0 mg/kg/injection, schedule: Q01DX009 (ip), vehicle: saline with Tween-80) is on record?
**A.** The survivor count was 6 of 6.

**Q.** And the survivor count (dose: 200.0 mg/kg/injection, schedule: Q01DX009 (ip), vehicle: saline with Tween-80)?
**A.** The survivor count was 6 of 6.

**Q.** Which T/C (dose: 12.5 mg/kg/injection, schedule: Q01DX005 (ip), vehicle: distilled water + Tween-80) does the source give for COc1ccc(S(=O)(=O)N/N=C/C(=O)O)cc1 here?
**A.** The T/C was 127, 130, 135 % of control.

**Q.** And the T/C (dose: 12.5 mg/kg/injection, schedule: Q01DX009 (ip), vehicle: other)?
**A.** Its T/C is 128 and 141 % of control.

**Q.** And the T/C (dose: 25.0 mg/kg/injection, schedule: Q01DX005 (ip), vehicle: distilled water + Tween-80)?
**A.** Its T/C is 130, 133, 135 % of control.

**Q.** What about the T/C [1] of the same compound?
**A.** Its T/C is 128, 135, 137 (2×), 144 % of control.

**Q.** What about the T/C (dose: 25.0 mg/kg/injection, schedule: Q01DX009 (ip), vehicle: other) of the same compound?
**A.** Its T/C is 149 % of control.

**Q.** And the T/C (dose: 50.0 mg/kg/injection, schedule: Q01DX005 (ip), vehicle: distilled water + Tween-80)?
**A.** The T/C was 144 and 147 % of control.

**Q.** What about the T/C [2] of the same compound?
**A.** The T/C was 141, 142, 144, 147, 165 % of control.

**Q.** What about the T/C [3] of the same compound?
**A.** The T/C was 144 % of control.

**Q.** What about the survivor count [3] of the same compound?
**A.** Its survivor count is 3 of 5.

**Q.** And the T/C [4]?
**A.** Its T/C is 163, 171, 175, 188 % of control [5 of 6 alive] (2×).

**Q.** And the survivor count (dose: 100.0 mg/kg/injection, schedule: Q01DX009 (ip), vehicle: other)?
**A.** The survivor count was 5 of 6 and 6 of 6.

**Q.** And the survivor count (dose: 200.0 mg/kg/injection, schedule: Q01DX005 (ip), vehicle: distilled water + Tween-80)?
**A.** Its survivor count is 0 of 5, 2 of 6, 2 of 5.

**Q.** And the T/C [5]?
**A.** Its T/C is 157, 182, 185 [5 of 6 alive], 198 % of control.

**Q.** And the survivor count [5]?
**A.** Its survivor count is 5 of 6 and 6 of 6.

**Q.** And the survivor count (dose: 200.0 mg/kg/injection, schedule: Q01DX009 (ip), vehicle: other)?
**A.** Its survivor count is 2 of 6.

**Q.** What about the survivor count (dose: 400.0 mg/kg/injection, schedule: Q01DX005 (ip), vehicle: saline with Tween-80) of the same compound?
**A.** Its survivor count is 1 of 6.

**Q.** What about the survivor count (dose: 400.0 mg/kg/injection, schedule: Q01DX009 (ip), vehicle: other) of the same compound?
**A.** The survivor count was 0 of 6.

**Q.** For COc1cc(C2N=C(N)N=C(N)N2c2ccc(S(N)(=O)=O)cc2)cc(OC)c1OC (stereo unspecified), which survivor count (dose: 240.0 mg/kg/injection, schedule: Q01DX005 (ip), vehicle: Klucel (hydroxypropylcellulose) (HPC)) is on record?
**A.** The survivor count was 0 of 6.

**Q.** Which survivor count (dose: 100.0 mg/kg/injection, schedule: Q01DX009 (ip), vehicle: suspension in saline) does the source give for Cc1cc(NC(=S)SCc2ccc(Cl)cc2)c([N+](=O)[O-])cc1C here?
**A.** The survivor count was 4 of 6.

**Q.** How did the T/C (dose: 1.0 mg/kg/injection, schedule: Q01DX005 (ip), vehicle: Klucel (hydroxypropylcellulose) (HPC)) turn out when C/C=C(\C)C(=O)OC1C(C)=C2C(C1OC(=O)CCCCC)C(C)(OC(C)=O)CC(OC(=O)CCC)C1(O)C2OC(=O)C1(C)O (stereo unspecified) was run?
**A.** The T/C was 128 [5 of 6 alive] and 130 % of control.

**Q.** What about the T/C [6] of the same compound?
**A.** The T/C was 127 % of control.

**Q.** What about the survivor count [6] of the same compound?
**A.** The survivor count was 6 of 6.

**Q.** What about the T/C [7] of the same compound?
**A.** The T/C was 135 % of control.

**Q.** What about the survivor count [7] of the same compound?
**A.** Its survivor count is 0 of 6.

**Q.** And the survivor count (dose: 8.0 mg/kg/injection, schedule: Q01DX005 (ip), vehicle: Klucel (hydroxypropylcellulose) (HPC))?
**A.** The survivor count was 0 of 6.

**Q.** How did the survivor count (dose: 100.0 mg/kg/injection, schedule: Q04DX002 (ip), vehicle: Klucel (hydroxypropylcellulose) (HPC)) turn out when FC(F)(F)c1c[nH]cc1C(F)(F)F was run?
**A.** Its survivor count is 6 of 6.

**Q.** And the survivor count (dose: 200.0 mg/kg/injection, schedule: Q04DX002 (ip), vehicle: Klucel (hydroxypropylcellulose) (HPC))?
**A.** Its survivor count is 0 of 6.

**Q.** What about the survivor count (dose: 400.0 mg/kg/injection, schedule: Q04DX002 (ip), vehicle: Klucel (hydroxypropylcellulose) (HPC)) of the same compound?
**A.** The survivor count was 0 of 6.

**Q.** Which results are given for COc1ccccc1C(=O)CCN(C)C?
**A.** survivor count [8]: 1 of 6; survivor count [9]: 0 of 6

**Q.** With C[n+]1cccc(NC(=O)c2ccccc2)c1 as the compound, how does the survivor count [10] read?
**A.** Its survivor count is 1 of 6.

**Q.** What about the survivor count [11] of the same compound?
**A.** The survivor count was 0 of 6.

**Q.** What about the survivor count [12] of the same compound?
**A.** Its survivor count is 0 of 6.

**Q.** With N=Cc1cc([N+](=O)[O-])ccc1O as the compound, how does the survivor count [12] read?
**A.** Its survivor count is 0 of 6.

**Q.** Which results are given for CCCCCCC(=O)/C=C/c1ccc(OCc2ccccc2)c(OCc2ccccc2)c1?
**A.** survivor count [1]: 6 of 6; survivor count [2]: 6 of 6; survivor count [4]: 6 of 6; survivor count [5]: 6 of 6

**Q.** Which results are given for Cc1nc2ccccc2nc1CBr?
**A.** T/C (dose: 6.25 mg/kg/injection, schedule: Q01DX009 (ip), vehicle: saline with Tween-80): 125 % of control; T/C (dose: 12.5 mg/kg/injection, schedule: Q01DX009 (ip), vehicle: saline with Tween-80): 125 and 130 % of control; survivor count (dose: 25.0 mg/kg/injection, schedule: Q01DX009 (ip), vehicle: saline with Tween-80): 2 of 6; survivor count (dose: 50.0 mg/kg/injection, schedule: Q01DX009 (ip), vehicle: saline with Tween-80): 1 of 6

**Q.** How did the survivor count (dose: 25.0 mg/kg/injection, schedule: Q01DX009 (ip), vehicle: distilled water + Tween-80) turn out when [S-]c1n[n+](-c2ccccc2)no1 was run?
**A.** Its survivor count is 6 of 6.

**Q.** What about the survivor count (dose: 50.0 mg/kg/injection, schedule: Q01DX009 (ip), vehicle: distilled water + Tween-80) of the same compound?
**A.** Its survivor count is 5 of 6.

**Q.** What about the survivor count (dose: 100.0 mg/kg/injection, schedule: Q01DX009 (ip), vehicle: distilled water + Tween-80) of the same compound?
**A.** The survivor count was 3 of 6.

**Q.** What about the survivor count (dose: 200.0 mg/kg/injection, schedule: Q01DX009 (ip), vehicle: distilled water + Tween-80) of the same compound?
**A.** The survivor count was 1 of 6.

**Q.** Which survivor count [8] does the source give for C[Si](C)(C)CNCc1ccccc1 here?
**A.** The survivor count was 3 of 6.

**Q.** What about the survivor count [9] of the same compound?
**A.** The survivor count was 0 of 6.

**Q.** Which results are given for Cc1c([O-])[n+](Cc2ccccc2)nn1C?
**A.** survivor count (dose: 50.0 mg/kg/injection, schedule: Q01DX009 (ip), vehicle: water): 3 of 3; survivor count (dose: 100.0 mg/kg/injection, schedule: Q01DX009 (ip), vehicle: water): 3 of 3; survivor count (dose: 200.0 mg/kg/injection, schedule: Q01DX009 (ip), vehicle: water): 3 of 3; survivor count (dose: 400.0 mg/kg/injection, schedule: Q01DX009 (ip), vehicle: water): 3 of 3

**Q.** For O=[N+]([O-])c1ccc(C2=C[P+](c3ccccc3)(c3ccccc3)C=C(c3ccccc3)O2)cc1, which T/C (dose: 6.0 mg/kg/injection, schedule: Q01DX005 (ip), vehicle: saline with Tween-80) is on record?
**A.** Its T/C is 125 % of control.

**Q.** What about the T/C (dose: 6.0 mg/kg/injection, schedule: Q01DX005 (ip), vehicle: saline) of the same compound?
**A.** Its T/C is 132 % of control [4 of 5 alive].

**Q.** And the survivor count (dose: 12.0 mg/kg/injection, schedule: Q01DX005 (ip), vehicle: saline with Tween-80)?
**A.** Its survivor count is 2 of 5.

**Q.** What about the survivor count (dose: 12.5 mg/kg/injection, schedule: Q01DX005 (ip), vehicle: saline with Tween-80) of the same compound?
**A.** The survivor count was 5 of 5.

**Q.** What about the survivor count [1] of the same compound?
**A.** Its survivor count is 2 of 5.

**Q.** And the survivor count [2]?
**A.** Its survivor count is 0 of 5.

**Q.** For CN(C)CCC(=O)C(=Cc1c(Cl)cccc1Cl)C(=O)CCN(C)C, which T/C (dose: 3.75 mg/kg/injection, schedule: Q01DX005 (ip), vehicle: saline) is on record?
**A.** Its T/C is 129 % of control.

**Q.** And the T/C (dose: 30.0 mg/kg/injection, schedule: Q01DX005 (ip), vehicle: saline)?
**A.** The T/C was 127 and 131 % of control.

**Q.** And the survivor count (dose: 60.0 mg/kg/injection, schedule: Q01DX005 (ip), vehicle: saline)?
**A.** Its survivor count is 0 of 6 and 1 of 6.

**Q.** What about the survivor count [8] of the same compound?
**A.** The survivor count was 0 of 6.

**Q.** What about the survivor count [9] of the same compound?
**A.** Its survivor count is 0 of 6.

**Q.** Which results are given for CCCCCCCC/C=C/CC1CCCC(C)N1 (stereo unspecified) (tested in a mixture with another compound)?
**A.** survivor count [10]: 0 of 6; survivor count [11]: 0 of 6; survivor count [12]: 0 of 6

**Q.** How did the survivor count (dose: 10.0 mg/kg/injection, schedule: Q04DX003 (ip), vehicle: DMSO) turn out when COc1ccc2c(c1O)-c1cc(O)cc3c1C(C2)NCC3 (stereo unspecified) was run?
**A.** The survivor count was 0 of 6.
